Measured values from publication PMC8472512, “Synthesis and Biochemical Evaluation of Baicalein Prodrugs” (Pharmaceutics, 2021).

Assay: in vitro
Settings: PAMPA

`CC(C)NCC(O)COc1ccc(CC(N)=O)cc1` (stereo not shown) [atenolol] showed a Papp of less than 0.1 ×10⁻⁶ cm/s.
